# This is one part of the list.
# Sequences of proteins named here, by UniProt entry; tags and fusion partners are left off. A change or cut given only in a name is not applied to a line headed by its entry.
# UniProt Q96P53: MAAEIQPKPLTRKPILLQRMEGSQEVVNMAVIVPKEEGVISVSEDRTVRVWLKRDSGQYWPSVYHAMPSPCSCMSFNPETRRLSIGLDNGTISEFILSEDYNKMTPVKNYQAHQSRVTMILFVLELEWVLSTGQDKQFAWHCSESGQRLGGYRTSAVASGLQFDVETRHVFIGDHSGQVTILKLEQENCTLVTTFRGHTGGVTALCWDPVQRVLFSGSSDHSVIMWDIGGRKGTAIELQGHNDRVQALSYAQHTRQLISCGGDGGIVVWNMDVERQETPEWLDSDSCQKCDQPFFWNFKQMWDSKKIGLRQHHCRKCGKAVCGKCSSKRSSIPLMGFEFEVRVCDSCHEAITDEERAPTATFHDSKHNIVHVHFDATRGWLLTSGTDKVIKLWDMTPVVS
# UniProt Q562E7: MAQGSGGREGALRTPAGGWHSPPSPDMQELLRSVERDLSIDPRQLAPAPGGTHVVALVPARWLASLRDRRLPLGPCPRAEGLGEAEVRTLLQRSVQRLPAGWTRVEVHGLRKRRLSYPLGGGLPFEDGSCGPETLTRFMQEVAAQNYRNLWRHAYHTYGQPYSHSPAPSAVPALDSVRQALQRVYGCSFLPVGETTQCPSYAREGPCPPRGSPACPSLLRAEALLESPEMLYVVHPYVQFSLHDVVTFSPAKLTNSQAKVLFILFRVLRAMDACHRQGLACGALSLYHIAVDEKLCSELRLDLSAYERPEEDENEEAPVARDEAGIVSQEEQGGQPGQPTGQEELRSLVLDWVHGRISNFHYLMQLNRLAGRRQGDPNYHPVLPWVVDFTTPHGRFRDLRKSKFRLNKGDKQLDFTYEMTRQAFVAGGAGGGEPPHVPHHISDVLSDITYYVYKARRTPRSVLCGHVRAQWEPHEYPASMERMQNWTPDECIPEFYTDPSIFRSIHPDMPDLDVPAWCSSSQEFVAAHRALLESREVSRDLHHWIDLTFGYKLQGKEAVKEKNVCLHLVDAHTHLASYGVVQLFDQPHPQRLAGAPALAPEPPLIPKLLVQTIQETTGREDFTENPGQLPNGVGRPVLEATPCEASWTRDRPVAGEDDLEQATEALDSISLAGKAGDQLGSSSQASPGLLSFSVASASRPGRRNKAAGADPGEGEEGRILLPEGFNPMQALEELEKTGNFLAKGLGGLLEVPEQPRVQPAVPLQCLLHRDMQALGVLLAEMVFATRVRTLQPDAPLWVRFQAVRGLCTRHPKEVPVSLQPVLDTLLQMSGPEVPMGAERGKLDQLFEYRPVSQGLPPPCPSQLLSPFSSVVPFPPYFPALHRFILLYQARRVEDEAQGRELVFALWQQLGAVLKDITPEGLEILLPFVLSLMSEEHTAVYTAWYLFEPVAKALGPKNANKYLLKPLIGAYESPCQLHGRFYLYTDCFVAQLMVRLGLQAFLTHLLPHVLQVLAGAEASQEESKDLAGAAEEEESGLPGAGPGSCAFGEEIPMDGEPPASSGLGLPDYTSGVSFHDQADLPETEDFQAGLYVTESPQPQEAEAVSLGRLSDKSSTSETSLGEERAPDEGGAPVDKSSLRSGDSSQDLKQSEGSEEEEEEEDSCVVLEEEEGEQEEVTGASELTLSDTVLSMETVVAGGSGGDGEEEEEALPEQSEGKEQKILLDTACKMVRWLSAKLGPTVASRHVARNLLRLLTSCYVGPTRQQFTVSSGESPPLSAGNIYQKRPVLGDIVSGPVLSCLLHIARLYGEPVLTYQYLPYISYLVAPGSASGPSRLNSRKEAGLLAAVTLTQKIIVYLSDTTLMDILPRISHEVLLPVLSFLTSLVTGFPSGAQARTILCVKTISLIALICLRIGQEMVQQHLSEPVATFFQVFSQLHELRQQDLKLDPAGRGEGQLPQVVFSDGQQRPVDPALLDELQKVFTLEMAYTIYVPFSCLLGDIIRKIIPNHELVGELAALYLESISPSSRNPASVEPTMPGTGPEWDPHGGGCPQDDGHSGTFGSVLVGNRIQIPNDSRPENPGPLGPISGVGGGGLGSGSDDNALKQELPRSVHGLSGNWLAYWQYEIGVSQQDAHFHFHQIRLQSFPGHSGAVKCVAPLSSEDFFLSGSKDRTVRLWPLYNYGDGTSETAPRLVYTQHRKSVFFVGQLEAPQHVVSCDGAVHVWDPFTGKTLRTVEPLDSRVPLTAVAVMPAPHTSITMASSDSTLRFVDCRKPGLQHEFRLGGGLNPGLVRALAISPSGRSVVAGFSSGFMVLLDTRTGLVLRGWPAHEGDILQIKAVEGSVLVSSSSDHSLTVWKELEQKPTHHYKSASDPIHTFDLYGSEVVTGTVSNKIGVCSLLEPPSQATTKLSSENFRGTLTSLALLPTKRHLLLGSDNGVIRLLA
# UniProt Q9NP79: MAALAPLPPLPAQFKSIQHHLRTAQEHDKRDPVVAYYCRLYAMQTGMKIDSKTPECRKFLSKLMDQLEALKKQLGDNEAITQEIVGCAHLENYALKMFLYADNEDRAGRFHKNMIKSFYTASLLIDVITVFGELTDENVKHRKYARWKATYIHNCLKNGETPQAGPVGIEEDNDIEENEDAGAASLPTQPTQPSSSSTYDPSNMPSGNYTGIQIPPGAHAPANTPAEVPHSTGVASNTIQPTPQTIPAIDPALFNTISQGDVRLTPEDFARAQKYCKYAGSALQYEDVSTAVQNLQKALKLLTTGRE
# UniProt Q5MNZ9: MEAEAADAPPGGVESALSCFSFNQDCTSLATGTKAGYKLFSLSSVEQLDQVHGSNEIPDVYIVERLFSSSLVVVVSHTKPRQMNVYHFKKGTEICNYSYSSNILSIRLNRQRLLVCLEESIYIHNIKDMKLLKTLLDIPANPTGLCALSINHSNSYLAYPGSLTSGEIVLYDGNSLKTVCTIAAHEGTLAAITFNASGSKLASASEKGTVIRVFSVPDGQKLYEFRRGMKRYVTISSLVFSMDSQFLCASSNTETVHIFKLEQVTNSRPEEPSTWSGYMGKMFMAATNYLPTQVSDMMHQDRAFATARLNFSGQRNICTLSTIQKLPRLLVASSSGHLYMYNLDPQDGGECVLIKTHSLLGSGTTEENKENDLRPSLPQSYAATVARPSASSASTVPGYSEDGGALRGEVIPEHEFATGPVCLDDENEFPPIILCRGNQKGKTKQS
# UniProt Q9H9H4: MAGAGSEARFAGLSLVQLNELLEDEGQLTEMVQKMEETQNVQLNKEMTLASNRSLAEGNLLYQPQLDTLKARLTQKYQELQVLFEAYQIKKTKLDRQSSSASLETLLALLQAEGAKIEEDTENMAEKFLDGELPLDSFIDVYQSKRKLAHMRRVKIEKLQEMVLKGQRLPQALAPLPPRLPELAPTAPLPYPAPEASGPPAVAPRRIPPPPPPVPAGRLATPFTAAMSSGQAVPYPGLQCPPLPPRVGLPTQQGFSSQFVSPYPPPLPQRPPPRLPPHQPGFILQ
# UniProt Q3ZAQ7: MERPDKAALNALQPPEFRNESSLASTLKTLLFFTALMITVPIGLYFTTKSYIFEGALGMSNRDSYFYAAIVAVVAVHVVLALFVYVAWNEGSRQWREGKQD
# UniProt Q14135: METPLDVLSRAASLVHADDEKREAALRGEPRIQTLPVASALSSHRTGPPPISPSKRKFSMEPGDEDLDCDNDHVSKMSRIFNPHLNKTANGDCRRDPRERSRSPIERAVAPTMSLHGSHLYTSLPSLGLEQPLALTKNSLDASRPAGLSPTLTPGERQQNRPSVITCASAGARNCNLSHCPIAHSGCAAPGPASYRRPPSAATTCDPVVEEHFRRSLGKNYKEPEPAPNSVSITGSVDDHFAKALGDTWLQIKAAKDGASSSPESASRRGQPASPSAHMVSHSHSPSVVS
# UniProt Q96J92: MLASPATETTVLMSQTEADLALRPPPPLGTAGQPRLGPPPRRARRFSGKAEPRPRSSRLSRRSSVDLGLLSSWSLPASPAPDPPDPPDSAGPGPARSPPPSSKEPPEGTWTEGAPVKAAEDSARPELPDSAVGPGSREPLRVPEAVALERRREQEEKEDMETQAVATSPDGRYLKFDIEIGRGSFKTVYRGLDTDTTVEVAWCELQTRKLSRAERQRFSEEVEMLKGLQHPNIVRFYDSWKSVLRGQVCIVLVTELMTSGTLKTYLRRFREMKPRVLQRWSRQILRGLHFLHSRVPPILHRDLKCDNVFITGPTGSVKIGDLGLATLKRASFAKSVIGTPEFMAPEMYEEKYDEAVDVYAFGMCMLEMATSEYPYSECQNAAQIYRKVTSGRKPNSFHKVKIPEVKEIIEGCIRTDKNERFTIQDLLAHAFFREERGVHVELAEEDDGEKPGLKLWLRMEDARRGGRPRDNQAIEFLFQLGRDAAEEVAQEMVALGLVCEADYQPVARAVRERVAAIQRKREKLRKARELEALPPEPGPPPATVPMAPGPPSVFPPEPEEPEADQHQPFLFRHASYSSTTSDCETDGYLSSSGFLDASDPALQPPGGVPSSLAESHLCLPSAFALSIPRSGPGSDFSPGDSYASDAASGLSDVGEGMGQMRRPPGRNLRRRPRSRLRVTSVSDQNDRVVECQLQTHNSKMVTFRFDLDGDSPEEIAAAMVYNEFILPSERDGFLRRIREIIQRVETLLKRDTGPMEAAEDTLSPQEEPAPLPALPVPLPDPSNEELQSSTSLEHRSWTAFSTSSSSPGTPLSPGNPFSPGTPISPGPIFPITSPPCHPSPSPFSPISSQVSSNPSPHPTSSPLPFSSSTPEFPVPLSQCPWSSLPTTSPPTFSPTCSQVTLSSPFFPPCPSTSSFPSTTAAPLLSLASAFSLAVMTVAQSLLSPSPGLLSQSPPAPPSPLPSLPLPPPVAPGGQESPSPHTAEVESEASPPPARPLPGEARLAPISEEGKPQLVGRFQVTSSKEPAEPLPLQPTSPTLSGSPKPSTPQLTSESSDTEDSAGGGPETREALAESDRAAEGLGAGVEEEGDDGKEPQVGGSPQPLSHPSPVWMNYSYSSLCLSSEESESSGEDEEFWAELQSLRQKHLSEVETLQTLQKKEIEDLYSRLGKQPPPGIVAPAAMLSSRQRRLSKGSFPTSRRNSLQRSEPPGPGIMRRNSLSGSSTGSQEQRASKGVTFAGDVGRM
# UniProt Q7Z5U6: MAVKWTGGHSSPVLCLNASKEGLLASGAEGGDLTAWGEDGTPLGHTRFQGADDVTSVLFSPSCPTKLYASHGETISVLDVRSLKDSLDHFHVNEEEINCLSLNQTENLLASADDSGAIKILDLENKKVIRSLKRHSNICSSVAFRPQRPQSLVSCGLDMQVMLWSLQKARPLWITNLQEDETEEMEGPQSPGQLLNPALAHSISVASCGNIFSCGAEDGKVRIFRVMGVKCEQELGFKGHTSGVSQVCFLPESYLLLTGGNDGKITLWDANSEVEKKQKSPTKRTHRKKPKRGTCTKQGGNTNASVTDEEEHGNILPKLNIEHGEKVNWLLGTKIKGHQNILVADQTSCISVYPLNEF
# UniProt Q9BQA1, whole entry, looked up: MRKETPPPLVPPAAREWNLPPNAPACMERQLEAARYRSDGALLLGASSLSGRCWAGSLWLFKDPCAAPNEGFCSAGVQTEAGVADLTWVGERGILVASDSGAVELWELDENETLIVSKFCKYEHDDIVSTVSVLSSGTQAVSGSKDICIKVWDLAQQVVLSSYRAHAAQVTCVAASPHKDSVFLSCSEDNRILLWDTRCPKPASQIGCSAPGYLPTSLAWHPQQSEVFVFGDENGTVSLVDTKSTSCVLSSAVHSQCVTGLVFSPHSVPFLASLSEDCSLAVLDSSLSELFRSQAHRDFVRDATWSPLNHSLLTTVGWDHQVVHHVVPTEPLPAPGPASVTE
# UniProt O95497: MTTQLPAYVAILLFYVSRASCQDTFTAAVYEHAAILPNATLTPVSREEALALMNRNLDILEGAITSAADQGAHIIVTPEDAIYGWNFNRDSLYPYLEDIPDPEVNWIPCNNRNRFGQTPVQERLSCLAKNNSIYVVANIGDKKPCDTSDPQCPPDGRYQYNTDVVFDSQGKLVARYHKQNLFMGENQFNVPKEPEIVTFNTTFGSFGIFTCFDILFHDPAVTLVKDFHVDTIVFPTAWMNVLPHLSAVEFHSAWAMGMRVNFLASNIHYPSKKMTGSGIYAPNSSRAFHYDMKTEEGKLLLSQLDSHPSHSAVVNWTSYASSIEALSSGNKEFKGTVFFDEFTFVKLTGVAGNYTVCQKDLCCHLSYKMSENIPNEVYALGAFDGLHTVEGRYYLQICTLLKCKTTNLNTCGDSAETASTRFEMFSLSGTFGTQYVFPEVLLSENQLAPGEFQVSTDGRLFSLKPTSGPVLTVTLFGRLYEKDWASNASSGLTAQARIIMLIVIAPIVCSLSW
# UniProt Q9H7M9, whole entry, looked up: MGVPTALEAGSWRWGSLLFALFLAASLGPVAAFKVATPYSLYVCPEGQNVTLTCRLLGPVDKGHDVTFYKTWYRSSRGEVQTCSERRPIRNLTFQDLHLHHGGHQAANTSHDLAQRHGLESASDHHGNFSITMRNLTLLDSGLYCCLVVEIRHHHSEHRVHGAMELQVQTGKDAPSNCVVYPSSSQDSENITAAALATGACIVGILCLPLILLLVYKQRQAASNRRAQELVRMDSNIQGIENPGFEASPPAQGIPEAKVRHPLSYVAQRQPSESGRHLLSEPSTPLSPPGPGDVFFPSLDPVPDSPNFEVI
# Compound: Cc1sc2c(c1C)C(c1ccc(Cl)cc1)=N[C@@H](CC(=O)OC(C)(C)C)c1nnc(C)n1-2
# Assay: log2 fold change, soluble protein after heating vs DMSO (PISA); higher = thermal stabilisation; K562 cells, 10 uM, 30 min; active = over 0.2 and 3.5 SD of the protein, either way, in both replicates (recomputed)
# Outline: (§1)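 K562 cells at 2×10^6 cells/mL were given 10 μM compound for 30 min. Aliquots then went through 3 min of heating across 48°C-58°C, were pooled, and were extracted in PBS with 0.5% NP-40 at 4°C, and the supernatant after 21,000xg for 90 min was quantified by TMTpro 16plex LC-MS/MS with channel sums equalised. Thermal stability relative to control samples, from duplicates, is given as log2 fold change.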
row,Target,log2 fold change
1,WDFY2 (UniProt Q96P53),inactive: 0.101
2,VPS39 (UniProt Q96JC1),inactive: -0.009
3,WDR36 (UniProt Q8NI36),inactive: 0.071
4,WARS (UniProt P23381),inactive: -0.018
5,WDR24 (UniProt Q96S15),inactive: 0.061
6,WDR81 (UniProt Q562E7),inactive: 0.122
7,VMP1 (UniProt Q96GC9),inactive: 0.013
8,VTA1 (UniProt Q9NP79),inactive: -0.075
9,WIPI1 (UniProt Q5MNZ9),inactive: -0.034
10,WDR37 isoform 2 (UniProt Q9Y2I8),inactive: 0.079
11,VPS37B (UniProt Q9H9H4),inactive: 0.011
12,WDR20 isoform 7 (UniProt Q8TBZ3),inactive: 0.006
13,WARS1 (UniProt G3V277),inactive: 0.076
14,VPS13A isoform 4 (UniProt Q96RL7),inactive: -0.077
15,VMA21 isoform 2 (UniProt Q3ZAQ7),inactive: 0.013
16,VGLL4 isoform 4 (UniProt Q14135),inactive: 0.156
17,WNK4 (UniProt Q96J92),inactive: -0.089
18,WDR89 (UniProt Q96FK6),inactive: 0.002
19,"VPS35, A0A1W2PP10",inactive: 0.097
20,VCPKMT (UniProt Q9H867),inactive: 0.036
21,VEGFA (UniProt H0YBI8),inactive: -0.13
22,VPS54 (UniProt Q9P1Q0),inactive: -0.086
23,WBP2 (UniProt Q969T9),inactive: -0.032
24,WDR53 (UniProt Q7Z5U6),inactive: -0.016
25,WWOX (UniProt Q9NZC7),inactive: 0.566
26,"WDR46, A0A0G2JJL1",inactive: 0.303
27,WDR77 (UniProt Q9BQA1),inactive: -0.008
28,VLDLR (UniProt P98155),inactive: 0.019
29,WIPF2 (UniProt Q8TF74),inactive: -0.029

# Compound: c1ccc([C@@H]2C[C@H]2NC2CCNCC2)cc1
# Assay: as above
# Outline: as §1
row,Target,log2 fold change
1,VPS39 (UniProt Q96JC1),inactive: -0.052
2,WDR36 (UniProt Q8NI36),inactive: 0
3,WARS (UniProt P23381),inactive: -0.03
4,WDR24 (UniProt Q96S15),inactive: -0.127
5,VNN1 (UniProt O95497),inactive: -0.02
6,VMP1 (UniProt Q96GC9),inactive: 0.088
7,WIPI2 isoform 6 (UniProt Q9Y4P8),inactive: -0.005
8,VTA1 (UniProt Q9NP79),inactive: -0.025
9,WIPI1 (UniProt Q5MNZ9),inactive: 0.07
10,WDR37 isoform 2 (UniProt Q9Y2I8),inactive: 0.054
11,WDR20 isoform 7 (UniProt Q8TBZ3),inactive: -0.003
12,VMA21 (UniProt Q3ZAQ7),inactive: 0.008
13,VMA21 isoform 2 (UniProt Q3ZAQ7),inactive: 0
14,VIRMA (UniProt Q69YN4),inactive: 0.039
15,WDR89 (UniProt Q96FK6),inactive: 0.012
16,WBP2 (UniProt Q969T9),inactive: 0.021
17,VHL (UniProt P40337),inactive: 0.031
18,VEZF1 (UniProt Q14119),inactive: 0.245
19,VDAC1 (UniProt C9JI87),inactive: 0.137
20,WDR53 (UniProt Q7Z5U6),inactive: 0.1
21,WWOX (UniProt Q9NZC7),inactive: -0.09
22,WDR77 (UniProt Q9BQA1),inactive: -0.026
23,WDR34 (UniProt Q96EX3),inactive: 0.109
24,VSIR (UniProt Q9H7M9),inactive: 0.056
25,WIPF2 (UniProt Q8TF74),inactive: 0.024
